Negatives hold for the conditions tested. For some assays here: For at least one entry, the source does not settle the construct or the ends of the probe.
Legend:
[1] = tested on: DPPIV (also printed DDPIV); assay: competition: displacement of y-CDs-APT from Fe3O4-cDNA, ratiometric fluorescence; details: 1000 ng/mL protein, Fe3O4-cDNA (S2); conjugated to yellow carbon dots (y-CDs); attachment end not stated; probe hybridisation 25 °C, 60 min; DNase I amplification; commercial protein; label: y-CDs (emission 580 nm); single-stranded DNA
BSA = BSA (UniProt P02769); assay: as above; details: 1000 ng/mL protein, Fe3O4-cDNA (S2); conjugated to yellow carbon dots (y-CDs); attachment end not stated; probe hybridisation 25 °C, 60 min; DNase I amplification; commercial protein; label: y-CDs (emission 580 nm); single-stranded DNA

Protein sequences, listed by entry. Tags and fused reporters are not part of them. Residues count along the entry.
UniProt P02769, 25-607: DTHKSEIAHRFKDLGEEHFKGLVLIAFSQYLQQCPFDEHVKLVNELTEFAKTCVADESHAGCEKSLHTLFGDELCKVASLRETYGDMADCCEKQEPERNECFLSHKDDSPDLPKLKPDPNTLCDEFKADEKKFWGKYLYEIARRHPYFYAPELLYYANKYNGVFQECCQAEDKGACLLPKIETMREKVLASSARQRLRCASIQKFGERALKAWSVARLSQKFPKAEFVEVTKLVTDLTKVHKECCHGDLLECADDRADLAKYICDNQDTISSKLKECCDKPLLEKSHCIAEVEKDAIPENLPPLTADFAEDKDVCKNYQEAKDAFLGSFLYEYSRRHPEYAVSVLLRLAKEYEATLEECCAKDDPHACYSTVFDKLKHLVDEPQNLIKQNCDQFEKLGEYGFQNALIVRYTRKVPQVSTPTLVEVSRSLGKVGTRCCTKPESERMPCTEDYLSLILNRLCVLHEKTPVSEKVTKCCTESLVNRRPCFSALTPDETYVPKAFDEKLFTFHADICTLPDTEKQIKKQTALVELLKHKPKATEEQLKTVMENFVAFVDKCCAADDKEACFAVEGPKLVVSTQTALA

## ATCTAACTGCTGCGCCGCCGGGAAAATACTGTACGGTTAGA [APT (PTK7 aptamer), as y-CDs-APT]
[1]
  binding result: no binding
BSA
  binding result: no binding

— article PMC7885398
